Results deposited as PubChem BioAssay AID1224826 (NIAID, 2016).
This is a random part of about 17,000 deposited reagents. Over the whole deposit, about 1,110 (6.6%) were called active. 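Active means lowered or raised reporter signal; replicate intensities are raw and not normalised per plate.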 Reagents against one gene are numbered here. Not all columns of the deposit are shown.

Aim: 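Regulators of Tlr4 signalling leading to Tnf-alpha expression in macrophages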 (primary screen)
System: RAW264.7 G9 macrophages from mouse bearing reporters for p65 (GFP) and the Tnf promoter (mCherry)
Reagent: siRNA pool against mouse genes, 100 nM
Time to read-out: 16 h of LPS stimulation, after 2 days of siRNA transfection
Conditions: bacterial lipopolysaccharide (Salmonella minnesota R595), 10 ng/ml
Detection: 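Nuclear mCherry signal of the Tnf promoter reporter measured by imaging after background removal, scaled to each plate median and turned into robust z-scores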
Reading the numbers: Tnf reporter robust z-score: higher = stronger Tnf promoter reporter signal after LPS
Hit rule: 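a well counts as active at a score of -1.3 or below (Tlr4 knock-down control median) or above 3 (raised signal); controls and wells holding fewer than 50 cells are excluded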
Meaning of the calls: active = Tnf reporter clearly lowered or raised; inactive = no clear change in Tnf reporter

With knock-down of Dusp19, the screen gave Tnf reporter robust z-score -1.46; fewer than 50 cells in well enough cells in well; active.
Esrrb scored Tnf reporter robust z-score -0.04; fewer than 50 cells in well enough cells in well; inactive.
Against Frk, the values are Tnf reporter robust z-score 3.03; fewer than 50 cells in well enough cells in well; active.
Arx scored Tnf reporter robust z-score -1.27; fewer than 50 cells in well enough cells in well; inactive.
After knock-down of Or52b3, the record shows Tnf reporter robust z-score -1.03; fewer than 50 cells in well enough cells in well; inactive.
After knock-down of Slc22a19 the results were Tnf reporter robust z-score 0.07; fewer than 50 cells in well enough cells in well; inactive.
For Nfib #1 the deposit lists Tnf reporter robust z-score -0.71; fewer than 50 cells in well enough cells in well; inactive.
Silencing of Nfib #2 resulted in: Tnf reporter robust z-score -0.8; fewer than 50 cells in well enough cells in well; inactive.
Silencing of Yipf3 gave: Tnf reporter robust z-score -1.19; fewer than 50 cells in well enough cells in well; inactive.

Reformatted: 3 of the entries above.
{"Gene": "Slc22a19", "reagent": 1, "Tnf reporter robust z-score": 0.07, "fewer than 50 cells in well": "enough cells in well", "Outcome": "inactive"}
{"Gene": "Nfib", "reagent": 1, "Tnf reporter robust z-score": -0.71, "fewer than 50 cells in well": "enough cells in well", "Outcome": "inactive"}
{"Gene": "Nfib", "reagent": 2, "Tnf reporter robust z-score": -0.8, "fewer than 50 cells in well": "enough cells in well", "Outcome": "inactive"}

The results go on.
For Gstm2 the deposit lists Tnf reporter robust z-score -0.86; fewer than 50 cells in well enough cells in well; inactive.
Depletion of Pola1 resulted in: Tnf reporter robust z-score 0.58; fewer than 50 cells in well enough cells in well; inactive.
After knock-down of Arhgap8, the screen gave fewer than 50 cells in well fewer than 50 cells per well; well left out of calls; inactive.
Med21 showed Tnf reporter robust z-score -1.84; fewer than 50 cells in well enough cells in well; active.
Or4b13 gave Tnf reporter robust z-score 1.77; fewer than 50 cells in well enough cells in well; inactive.
Silencing of Zfp871 gave: Tnf reporter robust z-score 1; fewer than 50 cells in well enough cells in well; inactive.
For Ganc, the values are Tnf reporter robust z-score -0.82; fewer than 50 cells in well enough cells in well; inactive.
Uchl5 scored Tnf reporter robust z-score -0.95; fewer than 50 cells in well enough cells in well; inactive.
Silencing of Nphp3 resulted in: Tnf reporter robust z-score 1.02; fewer than 50 cells in well enough cells in well; inactive.
Defa4 scored Tnf reporter robust z-score 1.34; fewer than 50 cells in well enough cells in well; inactive.
Against Pdss1 the deposit lists fewer than 50 cells in well fewer than 50 cells per well; well left out of calls; inactive.
Lncpint scored fewer than 50 cells in well fewer than 50 cells per well; well left out of calls; inactive.
